From the supplement of paper PMC5355238
Where a name gives a salt, the structure may show the parent alone. This is one part of the list. Most values lie at the level of the controls, where differences are scatter.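 Reh is a human leukemia cell line; the read-out is the median γH2AX antibody signal in S-phase cells by flow cytometry, with the score counting standard deviations from the median difference of each paired set of plates. Scores above 2.5 were called candidate hits, while scores below -2 mark compounds that lowered the MK1775-induced damage.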

test system: Reh; test: Z' of S-phase gammaH2AX difference (drug + MK1775 minus drug alone) (Z-score); higher = stronger synergistic S-phase DNA damage with MK1775; settings: MK1775 concentration 400 nM; first compound 10 µM; 4 h

SMILES | Z' of S-phase gammaH2AX difference (Z-score)
CCOC(=O)C1=C(C)NC(C)=C(C(=O)OC)C1c1cccc(Cl)c1Cl (stereo unspecified) [Felodipine] + C=CCn1c(=O)c2cnc(Nc3ccc(N4CCN(C)CC4)cc3)nc2n1-c1cccc(C(C)(C)O)n1 [MK1775] | inactive: 0.702
Cc1nc2sccn2c(=O)c1CCN1CCC(=C(c2ccc(F)cc2)c2ccc(F)cc2)CC1 [Ritanserin] + C=CCn1c(=O)c2cnc(Nc3ccc(N4CCN(C)CC4)cc3)nc2n1-c1cccc(C(C)(C)O)n1 [MK1775] | inactive: -0.323
Cc1oc(S(=O)(=O)N2CCCCC2)cc1NC(=O)Nc1ccccc1 + C=CCn1c(=O)c2cnc(Nc3ccc(N4CCN(C)CC4)cc3)nc2n1-c1cccc(C(C)(C)O)n1 [MK1775] | inactive: 0.397
O=C1c2c(O)ccc(O)c2C(=O)c2c(NCCNCCO)ccc(NCCNCCO)c21 [Mitoxantrone] + C=CCn1c(=O)c2cnc(Nc3ccc(N4CCN(C)CC4)cc3)nc2n1-c1cccc(C(C)(C)O)n1 [MK1775] | inactive: -10.6
O=C1c2c(O)ccc(O)c2C(=O)c2c(NCCNCCO)ccc(NCCNCCO)c21 [Mitoxantrone Hydrochloride] + C=CCn1c(=O)c2cnc(Nc3ccc(N4CCN(C)CC4)cc3)nc2n1-c1cccc(C(C)(C)O)n1 [MK1775] | inactive: 2.1
CN(C(=O)CCCOc1ccc2[nH]c(=O)ccc2c1)C1CCCCC1 [Cilostamide] + C=CCn1c(=O)c2cnc(Nc3ccc(N4CCN(C)CC4)cc3)nc2n1-c1cccc(C(C)(C)O)n1 [MK1775] | inactive: -0.127
CCCCc1oc2ccccc2c1C(=O)c1cc(I)c(OCCN(CC)CC)c(I)c1 [Amiodarone hydrochloride] + C=CCn1c(=O)c2cnc(Nc3ccc(N4CCN(C)CC4)cc3)nc2n1-c1cccc(C(C)(C)O)n1 [MK1775] | inactive: 0.438
CN1CCN(c2ccc3nc(-c4c(N)c5c(F)cccc5[nH]c4=O)[nH]c3c2)CC1 [Dovitinib (TKI-258)] + C=CCn1c(=O)c2cnc(Nc3ccc(N4CCN(C)CC4)cc3)nc2n1-c1cccc(C(C)(C)O)n1 [MK1775] | active: 4.15
N[C@@H](COP(=O)(O)O)C(=O)O [O-Phospho-L-serine] + C=CCn1c(=O)c2cnc(Nc3ccc(N4CCN(C)CC4)cc3)nc2n1-c1cccc(C(C)(C)O)n1 [MK1775] | inactive: 0.582
CCN1CCCC1CNC(=O)c1cc(S(N)(=O)=O)ccc1OC (stereo unspecified) [(?)-Sulpiride] + C=CCn1c(=O)c2cnc(Nc3ccc(N4CCN(C)CC4)cc3)nc2n1-c1cccc(C(C)(C)O)n1 [MK1775] | inactive: -0.319
O=C(O)c1cc2cc(F)ccc2[nH]1 [5-Fluoroindole-2-carboxylic acid] + C=CCn1c(=O)c2cnc(Nc3ccc(N4CCN(C)CC4)cc3)nc2n1-c1cccc(C(C)(C)O)n1 [MK1775] | inactive: -0.0334
CC12CC3CC(C)(C1)CC(N)(C3)C2 [Memantine hydrochloride] + C=CCn1c(=O)c2cnc(Nc3ccc(N4CCN(C)CC4)cc3)nc2n1-c1cccc(C(C)(C)O)n1 [MK1775] | inactive: 0.15
C#C[C@]1(O)CC[C@H]2[C@@H]3CCC4=Cc5oncc5C[C@]4(C)[C@H]3CC[C@@]21C [Danazol] + C=CCn1c(=O)c2cnc(Nc3ccc(N4CCN(C)CC4)cc3)nc2n1-c1cccc(C(C)(C)O)n1 [MK1775] | inactive: 0.712
Cc1cccc(-c2nn3c(c2-c2ccnc4ccc(C(N)=O)cc24)CCC3)n1 + C=CCn1c(=O)c2cnc(Nc3ccc(N4CCN(C)CC4)cc3)nc2n1-c1cccc(C(C)(C)O)n1 [MK1775] | inactive: 0.23
O=C(Nc1cccnc1)N1CCC(Cc2cccc(Oc3ccc(C(F)(F)F)cn3)c2)CC1 + C=CCn1c(=O)c2cnc(Nc3ccc(N4CCN(C)CC4)cc3)nc2n1-c1cccc(C(C)(C)O)n1 [MK1775] | inactive: -0.123
O=C(Nc1ccc([N+](=O)[O-])cc1Cl)c1cc(Cl)ccc1O [Niclosamide] + C=CCn1c(=O)c2cnc(Nc3ccc(N4CCN(C)CC4)cc3)nc2n1-c1cccc(C(C)(C)O)n1 [MK1775] | inactive: -0.539
CO[C@H]1C[C@@H]2CC[C@@H](C)[C@@](O)(O2)C(=O)C(=O)N2CCCC[C@H]2C(=O)O[C@H]([C@H](C)C[C@@H]2CC[C@@H](OC(=O)C(C)(CO)CO)[C@H](OC)C2)CC(=O)[C@H](C)/C=C(\C)[C@@H](O)[C@@H](OC)C(=O)[C@H](C)C[C@H](C)/C=C/C=C/C=C/1C [Temsirolimus (Torisel)] + C=CCn1c(=O)c2cnc(Nc3ccc(N4CCN(C)CC4)cc3)nc2n1-c1cccc(C(C)(C)O)n1 [MK1775] | inactive: -0.359
Cc1ccc(C(=O)N(CCCN)[C@@H](c2oc3cc(Cl)ccc3c(=O)c2Cc2ccccc2)C(C)C)cc1 + C=CCn1c(=O)c2cnc(Nc3ccc(N4CCN(C)CC4)cc3)nc2n1-c1cccc(C(C)(C)O)n1 [MK1775] | inactive: -0.375

Single entries from the list.
Z' of S-phase gammaH2AX difference (Z-score) with CCN1CCCC1CNC(=O)c1cc(S(N)(=O)=O)ccc1OC (stereo unspecified) [(?)-Sulpiride] + C=CCn1c(=O)c2cnc(Nc3ccc(N4CCN(C)CC4)cc3)nc2n1-c1cccc(C(C)(C)O)n1 [MK1775] is entered as inactive: -0.319
Z' of S-phase gammaH2AX difference (Z-score) with C#C[C@]1(O)CC[C@H]2[C@@H]3CCC4=Cc5oncc5C[C@]4(C)[C@H]3CC[C@@]21C [Danazol] + C=CCn1c(=O)c2cnc(Nc3ccc(N4CCN(C)CC4)cc3)nc2n1-c1cccc(C(C)(C)O)n1 [MK1775] is entered as inactive: 0.712

Next entries follow:

SMILES | Z' of S-phase gammaH2AX difference (Z-score)
Nc1nc(N)c2nc(-c3ccccc3)c(N)nc2n1 [Triamterene] + C=CCn1c(=O)c2cnc(Nc3ccc(N4CCN(C)CC4)cc3)nc2n1-c1cccc(C(C)(C)O)n1 [MK1775] | inactive: -1.73
C=C1C(=O)O[C@H]2[C@H]1CC/C(C)=C/CC[C@@]1(C)O[C@@H]21 [Parthenolide] + C=CCn1c(=O)c2cnc(Nc3ccc(N4CCN(C)CC4)cc3)nc2n1-c1cccc(C(C)(C)O)n1 [MK1775] | inactive: -0.378
Cn1nnc2c(C(N)=O)ncn2c1=O [Temozolomide] + C=CCn1c(=O)c2cnc(Nc3ccc(N4CCN(C)CC4)cc3)nc2n1-c1cccc(C(C)(C)O)n1 [MK1775] | inactive: 0.431
CN1[C@@H]2CC[C@H]1C[C@@H](OC(=O)C(O)c1ccccc1)C2 (mixture of isomers) [DL-Homatropine hydrobromide] + C=CCn1c(=O)c2cnc(Nc3ccc(N4CCN(C)CC4)cc3)nc2n1-c1cccc(C(C)(C)O)n1 [MK1775] | inactive: 0.0753
C[C@]12CC[C@H](O)CC1=CC[C@@H]1[C@@H]2CC[C@]2(C)C(c3cccnc3)=CC[C@@H]12 [Abiraterone (CB-7598)] + C=CCn1c(=O)c2cnc(Nc3ccc(N4CCN(C)CC4)cc3)nc2n1-c1cccc(C(C)(C)O)n1 [MK1775] | inactive: 0.57
CC(C)NCC(O)COc1cccc2[nH]ccc12 (stereo unspecified) [Pindolol] + C=CCn1c(=O)c2cnc(Nc3ccc(N4CCN(C)CC4)cc3)nc2n1-c1cccc(C(C)(C)O)n1 [MK1775] | inactive: -0.349
CC(CN(C)C)CN1c2ccccc2CCc2ccccc21 (stereo unspecified) [Trimipramine maleate] + C=CCn1c(=O)c2cnc(Nc3ccc(N4CCN(C)CC4)cc3)nc2n1-c1cccc(C(C)(C)O)n1 [MK1775] | inactive: 0.587
COC(=O)[C@H]1[C@H]2C[C@H]3c4[nH]c5ccccc5c4CCN3C[C@H]2CC[C@@H]1O [Rauwolscine hydrochloride] + C=CCn1c(=O)c2cnc(Nc3ccc(N4CCN(C)CC4)cc3)nc2n1-c1cccc(C(C)(C)O)n1 [MK1775] | inactive: -0.811
COC(=O)C(C)(N)Cc1ccc(O)cc1 (racemic) [alpha-Methyl-DL-tyrosine methyl ester hydrochloride] + C=CCn1c(=O)c2cnc(Nc3ccc(N4CCN(C)CC4)cc3)nc2n1-c1cccc(C(C)(C)O)n1 [MK1775] | inactive: -0.146
CC(C)C(=O)c1c(C(C)C)nn2ccccc12 [Ibudilast] + C=CCn1c(=O)c2cnc(Nc3ccc(N4CCN(C)CC4)cc3)nc2n1-c1cccc(C(C)(C)O)n1 [MK1775] | inactive: -0.0899
Nc1ncnc2c1ncn2[C@@H]1O[C@@H]2COP(=O)(O)O[C@H]2[C@H]1O [Adenosine 3',5'-cyclic monophosphate] + C=CCn1c(=O)c2cnc(Nc3ccc(N4CCN(C)CC4)cc3)nc2n1-c1cccc(C(C)(C)O)n1 [MK1775] | inactive: -0.424
NCCc1ccc(O)c(O)c1 [Dopamine hydrochloride] + C=CCn1c(=O)c2cnc(Nc3ccc(N4CCN(C)CC4)cc3)nc2n1-c1cccc(C(C)(C)O)n1 [MK1775] | inactive: -0.721
O=C(/C=C/c1cccnc1)NCCCCC1CCN(C(=O)c2ccccc2)CC1 + C=CCn1c(=O)c2cnc(Nc3ccc(N4CCN(C)CC4)cc3)nc2n1-c1cccc(C(C)(C)O)n1 [MK1775] | inactive: 0.641
C[C@H](Cc1ccc(O)c(O)c1)[C@@H](C)Cc1ccc(O)c(O)c1 + C=CCn1c(=O)c2cnc(Nc3ccc(N4CCN(C)CC4)cc3)nc2n1-c1cccc(C(C)(C)O)n1 [MK1775] | inactive: -0.733
NC(N)=NC(N)=Nc1ccccc1 [1-Phenylbiguanide] + C=CCn1c(=O)c2cnc(Nc3ccc(N4CCN(C)CC4)cc3)nc2n1-c1cccc(C(C)(C)O)n1 [MK1775] | inactive: -0.888
NC(=O)c1ccccc1 [Benzamide] + C=CCn1c(=O)c2cnc(Nc3ccc(N4CCN(C)CC4)cc3)nc2n1-c1cccc(C(C)(C)O)n1 [MK1775] | inactive: -0.184
C[C@H](CS)C(=O)N1CCC[C@H]1C(=O)O [Captopril] + C=CCn1c(=O)c2cnc(Nc3ccc(N4CCN(C)CC4)cc3)nc2n1-c1cccc(C(C)(C)O)n1 [MK1775] | inactive: -0.15
Cn1cnc2c(F)c(Nc3ccc(Br)cc3Cl)c(C(=O)NOCCO)cc21 [AZD6244 (Selumetinib)] + C=CCn1c(=O)c2cnc(Nc3ccc(N4CCN(C)CC4)cc3)nc2n1-c1cccc(C(C)(C)O)n1 [MK1775] | inactive: 0.196
